{
  "source": "patent US7741520B2",
  "about": "“Sulfonanilide analogs as selective aromatase modulators (SAMs)” (The Ohio State University Research Foundation, priority 2006, dated 2010)",
  "note": "Some entries share one result that the patent states for a list of compounds.",
  "data": [
    {"tested_on": "aromatase activity in SK-BR-3 breast cancer cells", "test": "Tritiated water-release assay in SK-BR-3 cells (additional compounds)", "format": "cell-based, human", "conditions": "2.5 μM (FIG. 12)", "experimental": "Cell Culture. AR and SK-BR-3 cells were obtained from ATCC (Rockville, Md.). SK-BR-3 cells were maintained in phenol red-free custom media (MEM, Earle's salts, 1.5× amino acids, 2× non-essential amino acids, L-glutamine, 1.5× vitamins, Gibco BRL) supplemented with 10% fetal bovine serum (FBS), 2 mM L-glutamine and 20 mg/L gentamycin. […] Fetal bovine serum was heat inactivated for 30 min in a 56° C. water bath before use. Cell cultures were grown at 37° C., in a humidified atmosphere of 5% CO2 in a Hereaus CO2 incubator. For all experiments, cells were plated in 6 well plates and grown to subconfluency. Before treatment, the media was changed to a defined one containing DMEM/F12 media (Sigma) with 1.0 mg/mL human albumin (OSU Hospital Pharmacy), 5.0 mg/L human transferin and 5.0 mg/L bovine insulin.\nTritiated water-release assay in JAR and SK-BR-3 cell lines. Measurement of aromatase enzyme activity was based on the tritium water release assay. Cells in six well plates were treated with 0.1% DMSO (control), and inhibitors at the indicated concentrations. After 24 hours, the cells were incubated 3 hours (SK-BR-3 cells) or 1 hour (JAR cells) with fresh media along with 100 nM [1β-^3H]-androst-4-ene-3,17-dione (1 μCi). Subsequently, the reaction mixture was removed, and proteins were precipitated using 10% trichloroacetic acid at 42° C. for 20 min. After a brief centrifugation, the media was extracted three times with an equal amount of chloroform to remove remaining substrate and further treated with dextran-treated charcoal. After centrifugation, a 250-μl aliquot containing the product was counted in 5 ml of liquid scintillation mixture. Results were corrected for blanks and for the cell contents of culture flasks, and results were expressed as picomoles of ^3H2O formed per hour incubation time per million live cells (pmol/h/10^6 cells). To determine the amount of cells in each flask, the cells were lysed and analyzed using the diphenylamine DNA assay adapted to a 96-well plate. IC50 sigmoidal dose-response data were analyzed with Microsoft Excel and the Graphpad Prism (Version 3.0) program.\nDiphenylamine DNA Assay To determine the amount of viable cells in each flask, the cells were lysed with 0.5N NaOH aqueous solution and analyzed using the diphenylamine DNA assay adapted to a 96-well plate. DNA standards (0-30 μg) were prepared using double-stranded DNA reconstituted in PBS and added in triplicates directly to the wells. A uniform cell suspension was prepared from the 6 well plate in 300 μl 0.5N NaOH aqueous solution, and 60 μl of the unknown samples were added in triplicates to separate wells. […] This solution (60 μl) was added to each well along with 100 μl of a 4% diphenylamine solution in glacial acetic acid. The plates were incubated at 37° C. for 24 hours. After centrifugation, 100 μl supernatant of each well was transferred to a new 96 well plate, and the OD595 was measured using a microplater reader. The DNA concentration was determined by extrapolation to the standard curve and the amount of cells/well was calculated using the equation: 1 cell≈7 pg DNA.", "values": [
      {"smiles": "Cc1ccc(COc2cc([N+](=O)[O-])ccc2N(C)S(C)(=O)=O)cc1", "note": "[Compound 30c, N-methyl-N-[2-(4′-methylbenzyloxy)-4-nitrophenyl]methanesulfonamide]", "decrease of aromatase activity in SK-BR-3 cells": "greater than 50%"},
      {"smiles": "CN(c1ccc([N+](=O)[O-])cc1OCc1ccc([N+](=O)[O-])cc1)S(C)(=O)=O", "note": "[Compound 27c, N-methyl-N-[2-(4′-nitrobenzyloxy)-4-nitrophenyl]methanesulfonamide]", "decrease of aromatase activity in SK-BR-3 cells": "greater than 50%"},
      {"smiles": "CN(c1ccc([N+](=O)[O-])cc1OCc1ccccc1-c1ccccc1)S(C)(=O)=O", "note": "[Compound 29c, N-methyl-N-[2-(2′-phenylbenzyloxy)-4-nitrophenyl]methanesulfonamide]", "decrease of aromatase activity in SK-BR-3 cells": "greater than 50%"},
      {"smiles": "CN(c1ccc([N+](=O)[O-])cc1OCc1ccc2ccccc2c1)S(C)(=O)=O", "note": "[Compound 28c, N-methyl-N-[2-(β-naphthylmethoxy) 4-nitrophenyl]methanesulfonamide]", "decrease of aromatase activity in SK-BR-3 cells": "greater than 50%"},
      {"smiles": "CN(c1ccc([N+](=O)[O-])cc1OCc1ccc(F)cc1)S(C)(=O)=O", "note": "[Compound 33c, N-methyl-N-[2-(4′-fluorobenzyloxy)-4-nitrophenyl]methanesulfonamide]", "decrease of aromatase activity in SK-BR-3 cells": "greater than 50%"},
      {"smiles": "CS(=O)(=O)Nc1ccc([N+](=O)[O-])cc1OCc1ccc2ccccc2c1", "note": "[Compound 28b, N-[2-(β-naphthylmethoxy) 4-nitrophenyl]methanesulfonamide]", "decrease of aromatase activity in SK-BR-3 cells": "greater than 50%"}
    ]}
  ]
}
